One substance from publication PMC9482638 can be followed below.

By UniProt entry, the sequences of proteins in these tests, tags left out. Where a name states a change or a piece, a line headed by the entry shows the natural chain unless it says otherwise. Chains listed by the source or under a name are the forms on record and can include a tag or linker.
mNeonGreen-tagged NRAS^Q61L (P01111, form named): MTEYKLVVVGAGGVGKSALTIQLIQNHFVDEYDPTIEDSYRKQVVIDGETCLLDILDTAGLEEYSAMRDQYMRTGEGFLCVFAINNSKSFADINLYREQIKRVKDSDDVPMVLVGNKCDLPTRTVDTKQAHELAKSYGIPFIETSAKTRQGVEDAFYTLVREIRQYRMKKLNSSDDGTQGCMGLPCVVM
mNeonGreen-tagged NRAS^G12D (P01111, form named): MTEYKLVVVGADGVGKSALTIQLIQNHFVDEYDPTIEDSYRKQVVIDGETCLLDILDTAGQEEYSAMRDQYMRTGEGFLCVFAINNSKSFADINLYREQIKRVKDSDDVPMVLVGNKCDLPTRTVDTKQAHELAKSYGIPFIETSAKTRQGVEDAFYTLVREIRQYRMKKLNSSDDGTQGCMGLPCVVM

These are yes or no findings as the source states them, for the method shown. In cells and extracts the contact can be indirect. Some results given as binding are weak or reduced against the parent protein; the word gives no strength.

The target of experiment [1] is mNeonGreen-tagged NRAS^Q61L (UniProt P01111). Briefly: co-IP; mNeonGreen-tagged mutant RAS captured with mNeonGreen-Trap agarose from MM cell lysate in 0.5% CHAPS, 50 mM Tris pH 7.5, 150 mM NaCl, 2 h at 4 C; control beads in parallel; western blot.
For experiment [2], the target named is mNeonGreen-tagged NRAS^G12D (UniProt P01111). Described as above.

As to “SLC3A2 (endogenous) (from UniProt P08195 1-529)”, the binding entry in experiment [1] and in experiment [2] was “binds” throughout.
